The nature of this assay: qHTS Assay for Lipid Storage Modulators in Drosophila S3 Cells.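 For cell number change: cells counted by Cell Tracker Red CMTPX staining in the red channel.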 To be noted: BODIPY lipid droplet fluorescence, 18-24 h; for cell number change: measured here: cell count max response, cells fed with added oleic acid. The method, boiled down: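 Drosophila S3 cells got compounds at several concentrations plus oleic acid (400 uM solution). Laser-scanning cytometry with 488 nm excitation read lipid droplets at 500-530 nm and cells at 575-640 nm. Percent activity was relative to 20 uM Triacsin C.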

Where [1] appears, read: measured here: cell number channel AC50, cells fed with added oleic acid.
The mark [2] stands for this setting: measured here: lipid fluorescence (Fed channel) AC50, cells fed with added oleic acid.

Each structure is given as a SMILES string. The list shows a part of the results. These are further read-outs of the screen, such as a control signal, another cell line or another target. No call is given for them. Compounds called inactive in the main read-out are mostly missing here. Potencies come from curve fits of mixed quality, noted in brackets.

For the compound `CC1=C(C#N)C(c2ccc(O)cc2)C2=C(CCCC2=O)N1` (stereo not given), the cell number change was 73.4%. Further, the AC50 under setting [1] was 25.9 µM [rising, single point].
On to `Cc1cccc(N2CC(C(=O)Nc3ccc(S(=O)(=O)N4CCCCC4)cc3)CC2=O)c1C` (stereo not given), for which the cell number change is 12.8%. In addition, the concentration at half-maximal activity (AC50) under setting [2] was 0.58 µM [falling, partial curve, poor fit].
`COc1ccc(C(=O)N/N=C/c2ccc(SC)cc2)cc1`: the cell number change amounted to 33.5%.
Regarding `Cc1cnc(NC(=O)CSc2ccccc2)s1`, the cell number change was 46.5%. Also, the half-maximal activity concentration (AC50) under setting [1] is 18.4 µM [rising, single point]. Further, under setting [2], the AC50 is 1.84 µM [falling, partial curve].
On to `CSc1nc(N)nc(SCC(=O)Nc2ccc(Cl)cc2)c1C#N`, for which the cell number change was -3.96%.
`Cc1ccccc1CNC(=O)C(=O)NCC1CCCN1S(=O)(=O)c1ccccc1` (stereo not given): the cell number change was found to be 22.7%. In addition, under setting [2], the concentration at half-maximal activity (AC50) is 1.64 µM [rising, partial curve].
For `COc1ccc(OC)c(-c2csc(NC(=O)COC(=O)C3CCC3)n2)c1`, the cell number change was found to be 8.43%. Also, the AC50 under setting [2] is 0.058 µM [falling, full curve, poor fit].
Regarding `CC(C)(C)c1ccc(OCC(=O)NC2CCS(=O)(=O)C2)cc1` (stereo not given), the cell number change worked out at 20%. Also, the AC50 under setting [2] is 13 µM [rising, partial curve].
Take `CCCn1c(SCC(=O)NC2CCCc3ccccc32)n[nH]c1=O` (stereo not given): the half-maximal activity concentration (AC50) under setting [1] is 0.13 µM [rising, single point].
`CS(=O)(=O)N1CCC(C(=O)Nc2ccccc2Cl)CC1`: the cell number change was found to be 3.44%. Also, the concentration at half-maximal activity (AC50) under setting [2] was 0.116 µM [rising, full curve, poor fit].
Consider `O=C(O)C1CCCN1C(=O)Nc1ccccc1` (stereo not given), for which the cell number change is -4.01%.
For the compound `COc1cccc(NC(=O)COc2cc(O)c3c(c2)OC(C)(C)CC3=O)c1`, the cell number change is -5.5%. In addition, the half-maximal activity concentration (AC50) under setting [2] is 29.1 µM [falling, single point].
As for `O=Cc1cn(CC(=O)N2CCc3ccccc32)c2ccccc12`, the concentration at half-maximal activity (AC50) reads like this: under setting [1], 0.731 µM [falling, partial curve, poor fit]; under setting [2], 0.731 µM [falling, full curve].
Turning to `Nc1[nH]n(-c2ccccc2)c(=O)c1N=Nc1ccc2c(c1)OCCO2`, the cell number change is -28.7%. For the same compound, the half-maximal activity concentration (AC50) under setting [2] was 18.4 µM [falling, single point].
On to `COc1ccc(C(=O)NCCCN2CCN(CCCNC(=O)c3ccc(OC)c(OC)c3)CC2)cc1OC`, for which the cell number change was -9.78%. Further, the AC50 under setting [2] is 1.16 µM [rising, full curve].
Take `CCOC(=O)N1CCN(c2cc(N)c([N+](=O)[O-])cc2F)CC1`: the cell number change was -25.1%. In addition, under setting [2], the AC50 was 25.9 µM [falling, single point].
As to `CCN(CCn1cccn1)C(=O)CC1C(=O)NCCN1CCc1ccccc1` (stereo not given), the cell number change was 16%.
On the same count and under the same terms, with `O=c1c2ccccc2c(/C=N/c2nnc(Cc3ccccc3)s2)c(O)n1-c1ccc(Cl)cn1` the figure was -2.08%.
As for `O=C(CSc1nnc(-c2n[nH]c3ccccc23)n1-c1ccccc1)Nc1cccc(Cl)c1`, the cell number change worked out at 36.3%. For the same compound, the AC50 under setting [1] is 4.11 µM [rising, full curve]. In addition, the AC50 under setting [2] was 6.51 µM [rising, single point].
For the compound `c1ccc(OCCSc2nnc3sc4ccccc4n23)cc1`, the cell number change amounted to 6.68%. Further, under setting [2], the AC50 was 29.1 µM [rising, single point].
For the compound `COc1ccc(-c2nnc(SCC(=O)N3CCC(Cc4ccccc4)CC3)o2)cc1OC`, the cell number change worked out at 28.5%. For the same compound, the concentration at half-maximal activity (AC50) under setting [1] is 2.06 µM [rising, full curve, poor fit]. Also, the AC50 under setting [2] is 0.00517 µM [rising, full curve, poor fit].
In the case of `COc1ccc(C(=O)N(Cc2ccc(N(C)C)cc2)C2CCS(=O)(=O)C2)cc1` (stereo not given), the cell number change is -13%.
On to `Cc1cccc(NC(=O)c2ccccc2NC(=O)C2CCCCC2)c1C`, for which the cell number change is 1.16%. Also, the AC50 under setting [2] was 29.1 µM [falling, single point].
Turning to `COc1ccc(CC2NCCC3(O)CCCCC23)cc1` (stereo not given), the cell number change came to 23.8%. Besides, the AC50 under setting [1] is 4.11 µM [falling, single point]. Further, the AC50 under setting [2] was 2.91 µM [falling, partial curve].
In the case of `N#CC1=C2SCN(Cc3ccccc3)CN2C(=O)CC1c1ccccc1F` (stereo not given), the cell number change is 12.8%. The AC50 under setting [2] is 0.0058 µM [rising, full curve, poor fit].
For the compound `Cc1ccc(-n2[nH]c(C)c(/C=N/Nc3ccc([N+](=O)[O-])cc3[N+](=O)[O-])c2=O)cc1`, the cell number change turned out to be 8.27%.
For `CC(C)(C)OC(=O)NCCc1nnc(SCc2c(Cl)cccc2Cl)o1`, the cell number change came to 60.1%. The half-maximal activity concentration (AC50) under setting [1] is 5.17 µM [rising, partial curve, poor fit].
For `C/C(=N\NC(=O)c1nnn(-c2nonc2N)c1CSc1ccccc1)c1ccc2c(c1)OCO2`, the cell number change is -1.9%.
`CC1(C)Cc2c(c(N3CCOCC3)nc3snc(NC(=O)c4ccccc4)c23)CO1`: the cell number change was 31.6%. Besides, the half-maximal activity concentration (AC50) under setting [1] was 0.259 µM [rising, full curve, poor fit]. The AC50 under setting [2] is 18.4 µM [rising, single point].
With `CCc1nc2ccccc2c(C(=O)Nc2ccc(F)cc2)c1C`, the cell number change is 19.2%. In addition, the AC50 under setting [2] is 29.1 µM [rising, single point].
Take `CCN1C(=NCCc2cccnc2)N[C@@H](c2ccccc2)C(C(=O)OC)=C1C`: the cell number change amounted to 6.89%. Moreover, under setting [2], the half-maximal activity concentration (AC50) was 6.51 µM [rising, single point].
As to `O=C(O)c1cccc(COCC(F)(F)C(F)F)c1`, the cell number change is -1.03%. Besides, the half-maximal activity concentration (AC50) under setting [2] is 11.6 µM [rising, single point].
`COC(=O)C1=C(CSc2nnnn2C)NC(=O)NC1c1cc(C)ccc1C` (stereo not given): the cell number change is -7.78%. Moreover, the AC50 under setting [2] is 9.2 µM [rising, partial curve].
As for `C[C@H](NC(=O)c1ccco1)C(=O)Nc1ccc2c(c1)OCO2`, the cell number change came to 3.2%.
For the compound `O=C(CCCC(=O)N1CCCc2ccccc21)N1CCCc2ccccc21`, the cell number change is -10.9%. Under setting [2], the AC50 is 0.92 µM [falling, full curve, poor fit].
On to `Cc1ccc(S(=O)(=O)NCC(=O)NCC(=O)N(C)Cc2ccc3ccccc3c2)cc1C`, for which the cell number change was -5.42%. Besides, the AC50 under setting [1] is 0.103 µM [rising, full curve, poor fit]. Moreover, the concentration at half-maximal activity (AC50) under setting [2] was 1.84 µM [falling, partial curve].
`CC(OC(=O)c1cccc(S(=O)(=O)N(C)C)c1)C(=O)NCc1ccc2c(c1)OCO2` (stereo not given): the concentration at half-maximal activity (AC50) under setting [1] is 1.16 µM [falling, single point].
As to `COc1ccc(OC)c(NC(=O)CN2CCC(NC(=O)c3ccccc3C)CC2)c1`, the cell number change was -23.8%. For the same compound, under setting [2], the AC50 is 6.51 µM [falling, single point].
`CN(C)CC(=O)c1ccc(-c2ccccc2)cc1`: the cell number change is -18.3%.
For `Cc1cc(=O)cc(C)[nH]1`, the cell number change was -56%. In addition, the concentration at half-maximal activity (AC50) under setting [1] was 3.66 µM [falling, full curve]. Also, under setting [2], the half-maximal activity concentration (AC50) was 29.1 µM [falling, partial curve, poor fit].

These data come from PubChem BioAssay AID2685 (National Center for Advancing Translational Sciences (NCATS), 2010).
